Data: patent publication US20100203041A1

Target: full-length EGFL7 (epitope mapping experiments)
Assay: western blot of lysates of 293 cells transfected with full-length or truncated EGFL7

B1: anti-EGFL7 mumab 4F11.1.8 (antibody, IgG2b, V domains shown)
VH: QIQLVQSGPELKKPGETVKISCKASGHTFTTYGMSWVKQAPGKGLKWMGWINTHSGVPTYADDFKGRFAFSLETSASTAHLQINNLKNEDTATYFCARLGSSAVDYWGQGTTVTVSS
VL: DIVLTQSPASLAVSLGQRATISCKASQSVDYDGDSYMSWYQQKPGQPPKLLIYGASNLESGIPARFSGSGSGTDFTLNIHPVEEEDAATYYCQQNNEDPYTFGGGTKVEIKR
binding: binds

Results are given in words; binding and its absence hold for the method and conditions named. A result given as binding can be weak or reduced; the word gives no strength.
